This test deals with T1, GST-mCLN5 (mouse CLN5 lacking the signal sequence, aa 26-341, with N-terminal GST) (mouse) (UniProt Q3UMW8).
T1 sequence: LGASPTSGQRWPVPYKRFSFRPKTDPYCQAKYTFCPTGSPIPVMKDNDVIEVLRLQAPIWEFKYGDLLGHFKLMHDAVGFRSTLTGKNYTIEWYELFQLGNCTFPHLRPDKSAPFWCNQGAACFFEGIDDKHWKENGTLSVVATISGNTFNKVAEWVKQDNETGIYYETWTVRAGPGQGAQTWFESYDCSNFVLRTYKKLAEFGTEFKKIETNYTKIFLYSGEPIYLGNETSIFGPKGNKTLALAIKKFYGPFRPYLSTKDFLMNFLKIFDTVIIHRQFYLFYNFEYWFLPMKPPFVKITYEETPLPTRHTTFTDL
Description: pull-down; GST-mCLN5 used to pull down endogenous NCL proteins from mouse brain extract; Western blot; only the target purified. On the technique in general: Immunoblotting shows a protein as a band on a membrane.

Sequences of proteins named here, by UniProt entry; tags and fusion partners are left off. A change or cut given only in a name is not applied to a line headed by its entry.
UniProt O89023: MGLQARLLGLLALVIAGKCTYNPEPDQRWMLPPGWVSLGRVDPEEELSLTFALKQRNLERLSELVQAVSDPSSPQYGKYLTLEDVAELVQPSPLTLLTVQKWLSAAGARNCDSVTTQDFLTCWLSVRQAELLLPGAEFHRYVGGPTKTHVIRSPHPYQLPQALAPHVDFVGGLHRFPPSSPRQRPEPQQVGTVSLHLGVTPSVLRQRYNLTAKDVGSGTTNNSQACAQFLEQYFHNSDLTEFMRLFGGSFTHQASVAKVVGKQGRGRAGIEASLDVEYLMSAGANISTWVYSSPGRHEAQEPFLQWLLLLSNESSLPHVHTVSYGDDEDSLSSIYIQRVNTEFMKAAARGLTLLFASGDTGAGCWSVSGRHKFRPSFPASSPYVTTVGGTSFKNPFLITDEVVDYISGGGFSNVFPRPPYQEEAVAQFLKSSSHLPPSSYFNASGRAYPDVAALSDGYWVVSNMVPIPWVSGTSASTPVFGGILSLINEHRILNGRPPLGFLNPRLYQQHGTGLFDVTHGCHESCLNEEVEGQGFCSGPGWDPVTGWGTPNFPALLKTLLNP

These are yes or no findings as the source states them, for the method shown. Binding seen in cells or lysates may run through a third protein. Binding calls can cover weak binding; strength is not graded here. Where a sequence is shown, tags or fusion partners need not be part of it.

Experimental findings from paper PMC2790443 are described below.

As for “CLN2/TPP1, endogenous in mouse brain (from UniProt O89023) (enzyme)”, the binding result was “binds”.
